Measured values from publication PMC7819943, “Rice protein-binding microarrays: a tool to detect cis-acting elements near promoter regions in rice”.
The list shows a part of the results.

Sequences of proteins named here, by UniProt entry; tags and fusion partners are left off.
UniProt Q0JBA9, entry or part of it: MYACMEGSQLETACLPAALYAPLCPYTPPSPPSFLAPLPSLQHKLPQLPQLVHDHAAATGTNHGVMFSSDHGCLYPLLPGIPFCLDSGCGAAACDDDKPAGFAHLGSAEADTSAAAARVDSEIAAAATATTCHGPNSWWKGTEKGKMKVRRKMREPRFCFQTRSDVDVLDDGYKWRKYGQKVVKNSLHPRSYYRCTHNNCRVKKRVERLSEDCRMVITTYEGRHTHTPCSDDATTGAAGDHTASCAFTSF

Molecular target: OsWRKY34 (Oryza sativa, UniProt Q0JBA9 1-250)
Assay: protein-binding microarray (RPBM); PBS, 2% BSA, 51.3 ng/ul salmon testes DNA, 50 uM zinc acetate, 200 nM TF, 25 C, 1 h; high values mean tight binding
Conditions: protein: recombinant; tags: N-terminal polyhistidine and DsRed monomer fusion (pET32a); label: CyDye5-dUTP incorporated in the synthesized complementary strand; 3' TTTTT single-stranded linker to array surface; dsDNA, one strand shown
Procedure, shortened: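 In PBS with 2% BSA, salmon testes DNA and 50 µM zinc acetate, 200 nM protein was incubated on a custom Agilent array at 25 °C for 1 h and then washed off. The array had been made double-stranded by primer extension with Cy5-dUTP and blocked with 2% BSA. The proteins were transcription factors fused N-terminally to polyhistidine and DsRed, expressed in E. coli BL21-CodonPlus and purified on Ni–NTA. The binding signal is per-feature fluorescence intensity (arbitrary units) from an Axon 4000B scanner.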

| Sequence | binding signal |
| --- | --- |
| GTGGAACTAAACACACCCTCACTACTTCCTCTATTATCGACGGAGTCACCTAGTGCAG | 8430 fluorescence intensity (a.u.) |
| CTCTCCCATTCCGGTTCATGAACTTGCACTTATTCACTGCCGGAGTCACCTAGTGCAG | 8600 fluorescence intensity (a.u.) |
| CCACAGCCACCACGATTTTATATACACATGAGCTTATCATCGGAGTCACCTAGTGCAG | 8120 fluorescence intensity (a.u.) |
| GCCTCTTCCGCCGCATCGCGCTCTACGGCTTCGACCCGCCCGGAGTCACCTAGTGCAG | 10100 fluorescence intensity (a.u.) |
| AGCCCAACATCTCGCATCCCCTGGCCGCCGCCACGAACATCGGAGTCACCTAGTGCAG | 10600 fluorescence intensity (a.u.) |
| GGTGATGCTTATTTATTCTCCTGTTTTATAGGGTTTTAACCGGAGTCACCTAGTGCAG | 8100 fluorescence intensity (a.u.) |
| AGGTGCTATTTCAGCATCCTATGCCATGTCATGTTGAATTCGGAGTCACCTAGTGCAG | 10200 fluorescence intensity (a.u.) |
| GGGATAAAATTGCCACGTAAGCGCCACCTTAACACTATGTCGGAGTCACCTAGTGCAG | 8360 fluorescence intensity (a.u.) |
| CCTCTAGTAGCAGTGGTTAGCACTTAGCTCTCGCCTAATGCGGAGTCACCTAGTGCAG | 8180 fluorescence intensity (a.u.) |
| CCACCCGCCGCCGCCGTCGCCGCCCTTCGCCGCCGCCATGCGGAGTCACCTAGTGCAG | 8690 fluorescence intensity (a.u.) |
| CTACATACACCCGTCCGAGTCATACGCGAGACCGCCCTCGCGGAGTCACCTAGTGCAG | 8520 fluorescence intensity (a.u.) |
| GCAAATACTAGGTGCCCCTGATCACGTTCCACGAATTCCACGGAGTCACCTAGTGCAG | 8110 fluorescence intensity (a.u.) |
| GCGACCATAAGAGACTCCCGCTTCCGCCAACCGCCCACCACGGAGTCACCTAGTGCAG | 9330 fluorescence intensity (a.u.) |
| CAGTTGTCTCACCTAACCAGTGGTATTCCCTGTCCCCAACCGGAGTCACCTAGTGCAG | 8820 fluorescence intensity (a.u.) |
| GGGTTTTGATTTTTTTTAAGATATCTTTTTTTACTTTTATCGGAGTCACCTAGTGCAG | 11500 fluorescence intensity (a.u.) |
| TTTGGTAAGATTTGAACGGTTGGTTGTATAGGTCATTGACCGGAGTCACCTAGTGCAG | 16900 fluorescence intensity (a.u.) |
| CAATAAACTTATTACTATCGCCCGGGTTTCTGCTTAGTTCCGGAGTCACCTAGTGCAG | 9320 fluorescence intensity (a.u.) |
| TATTCTCGCGATTACTGTCAGCTAATGATGGATCAATGTACGGAGTCACCTAGTGCAG | 8040 fluorescence intensity (a.u.) |
| TTTTTGGGTTGGGTTGGGGACGCGCTGTTTCGACGTGGGGCGGAGTCACCTAGTGCAG | 19000 fluorescence intensity (a.u.) |
| CAGCTCTTAAGTGTTCCTGTCTAGATTGTTGGTGTTGTGGCGGAGTCACCTAGTGCAG | 10100 fluorescence intensity (a.u.) |
| AGCCCACCTTAGTACTCCTATGGGCCTCTTCTTATTCCTCCGGAGTCACCTAGTGCAG | 8340 fluorescence intensity (a.u.) |

| Sequence | binding signal |
| --- | --- |
| AATTCCGGTGGTTCACCGCCGGTGAGGGTTGGAGGAGGGGCGGAGTCACCTAGTGCAG | 8160 fluorescence intensity (a.u.) |
| CCTATCATGTAAAACTCTTTGGGGTTTGTTGTATTGAATGCGGAGTCACCTAGTGCAG | 8020 fluorescence intensity (a.u.) |
| GATTAGGTGGTGTAGTATTTGCGCCCGTAGCTTGTCCGAACGGAGTCACCTAGTGCAG | 9210 fluorescence intensity (a.u.) |
| CGTGTGACTGTTGCCGTGATGGTTTTGATGTTTGTTTTGGCGGAGTCACCTAGTGCAG | 9180 fluorescence intensity (a.u.) |
| CTCGTTACTCTTCTCTCTCATATTTTATCTTCTCGAAATACGGAGTCACCTAGTGCAG | 8030 fluorescence intensity (a.u.) |
| CATCTATATCTTCACATCTCATTTAGTCCTAGCCATTCATCGGAGTCACCTAGTGCAG | 11100 fluorescence intensity (a.u.) |
| CTCACGAAACTAATCTGGGCCTTGACACCCACCGACCTACCGGAGTCACCTAGTGCAG | 8900 fluorescence intensity (a.u.) |
| GGCTCCGCGCGCGCCGTCTTTCTCATGGTCTTTCTCGATGCGGAGTCACCTAGTGCAG | 8770 fluorescence intensity (a.u.) |
| TTATATATCTACTCCTTCGCTTCGTACTATAAAACATTTTCGGAGTCACCTAGTGCAG | 10600 fluorescence intensity (a.u.) |
| CGGGGTCATTTCTCAGGTGCAACGAGTTCAACATTTCAACCGGAGTCACCTAGTGCAG | 8580 fluorescence intensity (a.u.) |
| GGTCATCAGCTCACCACCTTCTTGGCCTCATCGGAGAATGCGGAGTCACCTAGTGCAG | 8820 fluorescence intensity (a.u.) |
| CACATGCTTCACTGTATCTTGAATCTTGTCACTCTCTCATCGGAGTCACCTAGTGCAG | 10200 fluorescence intensity (a.u.) |
| ACCTTGACTGGTATTTTTTTTTTGTCTGTTAGTGATGCCACGGAGTCACCTAGTGCAG | 8620 fluorescence intensity (a.u.) |
| TCCCGGTTCTTTTTTAACCATAACTATTGTGGTTTTGGGGCGGAGTCACCTAGTGCAG | 10400 fluorescence intensity (a.u.) |
| CCACCGCACCGCACCGCACCGCGCCCTCGCCACCACGGCGCGGAGTCACCTAGTGCAG | 8630 fluorescence intensity (a.u.) |
| AGGGTTTTTGGTTAGGCGATTTGTTCTGGGCTTTCCGGCCCGGAGTCACCTAGTGCAG | 12200 fluorescence intensity (a.u.) |
| TTTATTTTGGTGACTTTTCTATTTAAAATCATTTATTAACCGGAGTCACCTAGTGCAG | 8720 fluorescence intensity (a.u.) |
| ACCAAGTTTCATTCTTCGTACGAAACTACTCCATGAATTCCGGAGTCACCTAGTGCAG | 8300 fluorescence intensity (a.u.) |
| TCTAGTGCCTCGTAGCCTCGTCGCCGCGCGCGTTTAGTTCCGGAGTCACCTAGTGCAG | 8030 fluorescence intensity (a.u.) |
| TCCCACGCCGCCGCCGCCGCCCTCTCTCTCACGCATCCCCCGGAGTCACCTAGTGCAG | 8280 fluorescence intensity (a.u.) |
| TTATATTTCTACGTTTTTTTATTACTCTATTCTCTTAATCCGGAGTCACCTAGTGCAG | 9820 fluorescence intensity (a.u.) |

3 entries from above, as labelled records.
TCCCGGTTCTTTTTTAACCATAACTATTGTGGTTTTGGGGCGGAGTCACCTAGTGCAG
  binding signal: 10400 fluorescence intensity (a.u.)
CCACCGCACCGCACCGCACCGCGCCCTCGCCACCACGGCGCGGAGTCACCTAGTGCAG
  binding signal: 8630 fluorescence intensity (a.u.)
AGGGTTTTTGGTTAGGCGATTTGTTCTGGGCTTTCCGGCCCGGAGTCACCTAGTGCAG
  binding signal: 12200 fluorescence intensity (a.u.)
